The results in this text go back to paper PMC4753070 (Bioorganic & medicinal chemistry letters, 2016).

This test deals with histone H3K9 acetylation in mouse forebrain primary neuronal cultures. Description: Neuronal histone acetylation assay, H3K9ac immunofluorescence. It is filed as cell-based. The note with it: Neuron, 24 h, read-out: EC50 for acetylation level of H3K9.

As a reminder, the EC50 is the concentration giving half of the maximal effect. Turning to `O=C(CCCCCCC(=O)Nc1ccccc1)NO` [SAHA, suberoylanilide hydroxamic acid, reference compound], the EC50 was determined as 950 nM.
